Library screening results

The values are deposited in ChEMBL (CHEMBL3988442, “University of Dundee, Small-Polar-MMV Screening Library” (2021)).

The filed quantity is “Percent Effect” (%).
The controls that fix the scale are not given in the record; negative values are as filed.
The compounds are a random part of those screened.
A dash means the value is not listed here; it may have been measured.

Mtb growth Cornell: 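Whole-cell assay for inhibitors of Mycobacterium tuberculosis growth, labelled Cornell in the record; the read-out is not stated. The concentration is filed as 10 mM, unlikely as a test dose, so the dose is not known. Higher means stronger inhibition (inferred from two other growth screens of the library). Size under these conditions: about 53,000 compounds, about 900 of them at 50% or above in at least one test.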
Mtb heat-shock: 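Assay on Mycobacterium tuberculosis, filed only as a heat shock assay from Cornell; the read-out is not stated. The concentration is filed as 10 mM, unlikely as a test dose, so the dose is not known. Direction is inferred from retests: higher values go with stronger inhibition. About 69,000 compounds were tested under these conditions; 1.4% (about 930) showed 50% or more at least once.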

| compound | Mtb growth Cornell | Mtb heat-shock |
|---|---|---|
| `O=C(CCC1CCCO1)NCCCC(=O)Nc1ccc(Cl)cc1` (configuration not stated) | 12.91% | 104.2% |
| `O=S(=O)(Nc1cnc(N2CCCC2)nc1)c1ccc(OC(F)(F)F)cc1` | 94.98% | -3.437% |
| `Cc1nc(C2(NCC(=O)NCc3cccs3)CCCCC2)no1` | 8.031% | -3.841% |
| `Cc1ccc(-c2ncc(C(=O)N3CCN4CCCCC4C3)c(O)n2)cc1` (configuration not stated) | 27.13% | -1.11% |
| `Cn1cncc1CN1CCC2(CC1)CCN2c1ncccn1` | 11.83% | -11.86% |
| `COc1ccc(NC(=O)c2cccc(CN3CCCC3C)c2)cc1OC` (configuration not stated) | 32.83% | -10.7% |
| `CCc1ccc(C2CCCN2C(=O)Cc2ccc(NC(C)=O)cc2)o1` (configuration not stated) | - | 9.443% |
| `CC(C)CC(=O)N1CCc2ccc(S(=O)(=O)N3CCN(C)CC3)cc2C1` | 13.78% | -2.029% |
| `C=C(C)CNc1ccc(C(=O)N(CC)Cc2nccn2C)cn1` | 11.09% | -34.29% |
| `CCn1cc(N2Cc3nc(N4CCC(O)CC4)ncc3C2=O)cn1` | - | -1.237% |
| `Cc1nnc(N2CCC(CCN(C)C)CC2)c(C#N)c1C` | -53.33% | 17.61% |
| `NC(=O)c1cc(C2CC2)nc2ccc(F)cc12` | -18.36% | -2.936% |
| `Cn1cc(C(=O)N2CCCC(n3cncn3)C2)ccc1=O` (configuration not stated) | -42.19% | 13.47% |
| `Cc1nn(C)c2cnn(CCCNS(=O)(=O)Cc3ccccc3)c12` | -15.07% | -0.5898% |
| `Cc1nc(CN(C)C2CCCN(c3cccnn3)C2)no1` (configuration not stated) | -52.51% | -18.8% |
| `O=C(CN1CCOC1=O)N1CC[C@@H](c2ccc3ccccc3c2)[C@H](O)C1` | 20.22% | 3.667% |
| `Cc1ccc(-c2ncc(C(=O)N3CCC[C@H](N)C3)c(O)n2)cc1` | 26.7% | -22.82% |
| `CCOCC1CN(C(=O)c2ccnnc2)Cc2cnn(CC)c21.O=C(O)C(F)(F)F` (configuration not stated) | 10.27% | -40.07% |
| `O=C(O)C(F)(F)F.O=C(O)C(F)(F)F.c1cnc(N2CCC3(CCN(Cc4ccncc4)CC3)CC2)nc1` | 16.43% | 6.802% |
| `CC(Nc1ccc(C#N)cc1F)c1cccc(S(N)(=O)=O)c1` (configuration not stated) | -16.58% | -10.84% |
| `Cc1cc(-n2nc(C3CC3)nc2-c2csnn2)ccn1` | 37.42% | -0.4186% |
| `O=C(O)C(F)(F)F.[H][C@@]12C[C@H](C(=O)N(C)C)CN(CCOc3ccc(Cl)cc3)[C@]1([H])CCO2` | 1.684% | -11.87% |
| `CCc1noc(CN(CC)C(=O)C2CC(=O)N(Cc3ccncc3)C2)n1` (configuration not stated) | -32.86% | -24.14% |
| `Cc1ccc(C2(CN3CCCC3)CCNCC2)nc1` | - | 1.747% |
| `O=C(CN1CC(c2nc(Cc3ccccc3)no2)C1)NCC1CCCO1.O=C(O)C(=O)O` (configuration not stated) | 21.24% | -17.33% |
| `O=C(CCSc1ccccc1)NS(=O)(=O)c1ccc2c(c1)OCCO2` | 25.61% | -40.94% |
| `CCOCC1COCCC12CCN(C(=O)CCOC)CC2` (configuration not stated) | 5.574% | -27.77% |
| `O=C(c1cc[nH]n1)N1CCC(Nc2cccnn2)CC1` | - | -11.87% |
| `COCC1CN(C(=O)Cc2ccccn2)Cc2cn(CC3CC3)nc21` (configuration not stated) | -3.341% | -13.9% |
| `CCCS(=O)(=O)N1CCC2(CC1)CN(C(=O)N(C)C)c1ccccc12` | 11.83% | 5.759% |
| `Nc1cc2c(nn1)CCN(C(=O)CC1CCCCC1)C2` | - | 11.22% |
| `COc1ncc(NCc2cc(C#N)cs2)cc1C(N)=O` | 1.595% | -26.28% |
| `CN[C@@H]1CCC[C@@H](Oc2ccccc2Oc2ccc(C)cc2)[C@@H]1O` | 74.11% | 50.23% |
| `CCOCC1CCCN(C(=O)NCc2ccc(-c3ccn[nH]3)cc2)C1` (configuration not stated) | -16.99% | -24.49% |
| `CC1=C[C@@H](CC#N)[C@H](C(C)C)C[C@H]1CC(=O)N1CCN(CCO)CC1` | - | -25.45% |
| `Cc1nc(C)c(CC(=O)N2CCCN(CC3CC3)C(C(C)C)C2)c(=O)[nH]1` (configuration not stated) | -22.8% | -28.17% |
| `C1CCC(c2nn3c(C4CCCO4)nnc3s2)C1` (configuration not stated) | - | -21.61% |
| `COc1ccc2c(c1)C(=O)N(C)C1(CCN(CC=C(C)C)CC1)N2` | 0.8841% | -17.05% |
| `O=C(Nc1ncn(CC(=O)N2CCCCCC2)n1)C1CCCO1` (configuration not stated) | - | 2.217% |
| `CC(C)c1nc(CN(C)C2CCCN(c3cccnn3)C2)no1` (configuration not stated) | -34.22% | 1.692% |
| `COC(=O)[C@@H]1Cc2ncn(C(C)C)c2CN1S(=O)(=O)Cc1ccccc1` | 8.648% | -29.05% |
| `Cc1ccc(CNC(=O)NCCCO)cc1` | -37.64% | -5.549% |
| `O=c1[nH]nc2nc(N3CCCC3)ccn12` | 2.721% | 3.995% |
| `Cc1nc(C)n(CC2CCCCN2CC(=O)Nc2ccncc2)n1` (configuration not stated) | -19.4% | -10.14% |
| `CC(C)CCN(C(=O)c1ccc(-n2ncc(C#N)c2N)cc1)C1CC1` | - | -11.16% |
| `[H][C@@]12CCC(=O)N(c3ccccc3)[C@]1([H])CCN2C(=O)c1ccoc1` | - | -206.5% |
| `COc1ccc(-n2ccc(C(=O)N3CCC(C(N)=O)C3)n2)cc1` (configuration not stated) | 0.7784% | 16.54% |
| `COc1cc(I)c(Cl)cc1C(=O)N(C)C` | 13.46% | 6.319% |
| `COc1c(Cl)cc(Cl)cc1CN1CCC(C(N)=O)C1` (configuration not stated) | 2.759% | 19.66% |
| `CN(Cc1c(F)cccc1Cl)C(=O)Cn1cnc(C#N)n1` | 14.48% | -1.386% |
| `Cc1nc(N2CC[C@@H](NC(=O)c3cnccn3)[C@H](O)C2)c2ccsc2n1` | - | -1.71% |
| `Cc1cc(C(=O)N2CCCC(c3nc(C)no3)C2)on1` (configuration not stated) | -4.239% | 8.812% |
| `O=C(CCn1ccc2ccc(F)cc21)/N=c1\[nH]nc(C2CCCO2)s1` (configuration not stated) | 26.71% | -1.114% |
| `CCc1cnc(CN(C(C)=O)C2CCN(CCS(C)(=O)=O)C2)o1` (configuration not stated) | -32.63% | -15.45% |
| `CNc1nc(CNC(=O)Nc2cccc(F)c2C)cs1` | - | 9.48% |
| `COCCN(Cc1cnn(C)c1)Cc1ccc(C)o1` | - | -5.258% |
| `CNC(=O)c1cc(C)nc(C2(C)CCCN2c2cc(C)ncn2)n1` (configuration not stated) | -3.041% | 16.23% |
| `COCc1ccccc1C(=O)N1CCN(C2=NCC(C)(C)S2)CC1` | -3.925% | -5.859% |
| `Cc1ccc(CN(C)C(=O)CN2CCOC(Cn3cccn3)C2)o1` (configuration not stated) | - | -8.345% |
| `Cc1cc2c(=O)n3c(nc2s1)CCN(C(=O)c1nn(C)cc1Cl)CC3` | -1.029% | -0.8284% |
| `Cc1ccc(-n2nc(C)c3c(C)cc(OCC(=O)NC(C)C)nc32)cc1` | - | 4.809% |
| `CNc1nccc(-c2cnc3sc(C)c(C)n3c2=O)n1` | -2.483% | -16.77% |
| `CCOCCCNC(=O)CN(c1ccc(F)c(F)c1)S(C)(=O)=O` | - | 8.419% |
| `O=C(COc1ccccc1)NS(=O)(=O)Cc1ccccc1` | 14.39% | 0.6449% |
| `O=C(c1ccc(-n2ccnc2)nc1)N1CCCC(n2cccn2)C1` (configuration not stated) | - | 6.855% |

The last 8 entries again:

compound	Mtb growth Cornell	Mtb heat-shock
COCc1ccccc1C(=O)N1CCN(C2=NCC(C)(C)S2)CC1	-3.925%	-5.859%
Cc1ccc(CN(C)C(=O)CN2CCOC(Cn3cccn3)C2)o1 (configuration not stated)	-	-8.345%
Cc1cc2c(=O)n3c(nc2s1)CCN(C(=O)c1nn(C)cc1Cl)CC3	-1.029%	-0.8284%
Cc1ccc(-n2nc(C)c3c(C)cc(OCC(=O)NC(C)C)nc32)cc1	-	4.809%
CNc1nccc(-c2cnc3sc(C)c(C)n3c2=O)n1	-2.483%	-16.77%
CCOCCCNC(=O)CN(c1ccc(F)c(F)c1)S(C)(=O)=O	-	8.419%
O=C(COc1ccccc1)NS(=O)(=O)Cc1ccccc1	14.39%	0.6449%
O=C(c1ccc(-n2ccnc2)nc1)N1CCCC(n2cccn2)C1 (configuration not stated)	-	6.855%